Data as given in PubChem BioAssay AID504804 (Drosophila RNAi Screening Center, 2011).
The screen tested about 19,000 reagents; below is a random part of those with a known target gene and a result. In the full data, 47 (0.25%) were called active. 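Signals are raw, not normalised; exact z-scores behind calls not deposited; actives needed confirmation, so some wells reaching 2 SD are inactive.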

- Purpose: 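dsRNAs that improve Kc cell survival under doxorubicin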 (primary screen)
- System: Drosophila Kc cells
- Knock-down reagent: long dsRNA against Drosophila genes, 0.5 µg dsRNA per well
- Timing: 96 h (48 h knock-down, then 48 h drug)
- Treatment: doxorubicin 5 µg/ml for 48 h, added 48 h after dsRNA
- Read-out: 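Luminescent ATP counts per replicate, not normalised, reflecting viable cells after 48 h dsRNA knock-down followed by 48 h of 5 µg/ml doxorubicin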
- Reading the numbers: raw ATP luminescence: higher = more viable cells, protection from doxorubicin
- Rule for the call: 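Active when both duplicate wells lie at least 2 SD above the plate mean and protection is confirmed by rescreening and independent dsRNAs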

The opening 3 entries, ahead of the listing:
ens (ensconsin) [DRSC08454] → raw ATP luminescence, replicate 1 = 40397; raw ATP luminescence, replicate 2 = 41100; Call = inactive
aph-1 (anterior pharynx defective 1) [DRSC00547] → raw ATP luminescence, replicate 1 = 91880; raw ATP luminescence, replicate 2 = 77323; Call = inactive
DCTN6-p27 (Dynactin 6, p27 subunit) [DRSC02609] → raw ATP luminescence, replicate 1 = 73927; raw ATP luminescence, replicate 2 = 66310; Call = inactive

Results, from the start:
ens (ensconsin) [DRSC08454] → raw ATP luminescence, replicate 1 = 40397; raw ATP luminescence, replicate 2 = 41100; Call = inactive
aph-1 (anterior pharynx defective 1) [DRSC00547] → raw ATP luminescence, replicate 1 = 91880; raw ATP luminescence, replicate 2 = 77323; Call = inactive
DCTN6-p27 (Dynactin 6, p27 subunit) [DRSC02609] → raw ATP luminescence, replicate 1 = 73927; raw ATP luminescence, replicate 2 = 66310; Call = inactive
Baldspot [DRSC09671] → raw ATP luminescence, replicate 1 = 82120; raw ATP luminescence, replicate 2 = 54950; Call = inactive
Mat89Ba (Maternal transcript 89Ba) [DRSC14540] → raw ATP luminescence, replicate 1 = 37253; raw ATP luminescence, replicate 2 = 39160; Call = inactive
esn (espinas) [DRSC05039] → raw ATP luminescence, replicate 1 = 88567; raw ATP luminescence, replicate 2 = 67577; Call = inactive
esn (espinas) [DRSC07612] → raw ATP luminescence, replicate 1 = 46293; raw ATP luminescence, replicate 2 = 82647; Call = inactive
TwdlT (TweedleT) [DRSC16677] → raw ATP luminescence, replicate 1 = 58260; raw ATP luminescence, replicate 2 = 43770; Call = inactive
CR42545 (pseudo) [DRSC03709] → raw ATP luminescence, replicate 1 = 30607; raw ATP luminescence, replicate 2 = 31837; Call = inactive
Rtnl2 [DRSC12609] → raw ATP luminescence, replicate 1 = 58583; raw ATP luminescence, replicate 2 = 59477; Call = inactive
PIG-O (Phosphatidylinositol glycan anchor biosynthesis class O) [DRSC06123] → raw ATP luminescence, replicate 1 = 69920; raw ATP luminescence, replicate 2 = 61773; Call = inactive
mTerf3 (mitochondrial transcription termination factor 3) [DRSC11759] → raw ATP luminescence, replicate 1 = 39893; raw ATP luminescence, replicate 2 = 44013; Call = inactive
Rai1 (Rat1 Interacting Protein 1) [DRSC20157] → raw ATP luminescence, replicate 1 = 3.38e5; raw ATP luminescence, replicate 2 = 3.09e5; Call = inactive
CG1513 [DRSC05194] → raw ATP luminescence, replicate 1 = 74770; raw ATP luminescence, replicate 2 = 69623; Call = inactive
CG1513 [DRSC06553] → raw ATP luminescence, replicate 1 = 1.93e5; raw ATP luminescence, replicate 2 = 1.97e5; Call = inactive
CG1513 [DRSC06554] → raw ATP luminescence, replicate 1 = 40117; raw ATP luminescence, replicate 2 = 1.01e5; Call = inactive
dj-1beta [DRSC14599] → raw ATP luminescence, replicate 1 = 68080; raw ATP luminescence, replicate 2 = 48240; Call = inactive
Hpd (4-hydroxyphenylpyruvate dioxygenase) [DRSC11670] → raw ATP luminescence, replicate 1 = 22790; raw ATP luminescence, replicate 2 = 23543; Call = inactive
CG13492 [DRSC04137] → raw ATP luminescence, replicate 1 = 80497; raw ATP luminescence, replicate 2 = 70760; Call = inactive
CG7509 [DRSC08596] → raw ATP luminescence, replicate 1 = 38957; raw ATP luminescence, replicate 2 = 35097; Call = inactive
tup (tailup) [DRSC03627] → raw ATP luminescence, replicate 1 = 1.16e5; raw ATP luminescence, replicate 2 = 84290; Call = inactive
Chchd2 (Coiled-coil-helix-coiled-coil-helix domain containing 2) [DRSC19931] → raw ATP luminescence, replicate 1 = 4.01e5; raw ATP luminescence, replicate 2 = 2.93e5; Call = inactive
Tsp42A (Tetraspanin 42A) [DRSC04862] → raw ATP luminescence, replicate 1 = 41317; raw ATP luminescence, replicate 2 = 42113; Call = inactive
CG31050 [DRSC13883] → raw ATP luminescence, replicate 1 = 2.46e5; raw ATP luminescence, replicate 2 = 2.24e5; Call = inactive
Acp95EF (Accessory gland protein 95EF) [DRSC14102] → raw ATP luminescence, replicate 1 = 65430; raw ATP luminescence, replicate 2 = 58890; Call = inactive
GstT3 (Glutathione S transferase T3) [DRSC20541] → raw ATP luminescence, replicate 1 = 3.38e5; raw ATP luminescence, replicate 2 = 3.16e5; Call = inactive
CG15515 [DRSC15054] → raw ATP luminescence, replicate 1 = 56060; raw ATP luminescence, replicate 2 = 40230; Call = inactive
CG17195 [DRSC15188] → raw ATP luminescence, replicate 1 = 59320; raw ATP luminescence, replicate 2 = 69170; Call = inactive
